These are yes or no findings as the source states them, for the method shown. Binding seen in cells or lysates may run through a third protein. Some results given as binding are weak or reduced against the parent protein; the word gives no strength. For some assays here: Sequences can lack the tags named with a protein.

The chains behind the UniProt entries cited, without tags or fusion partners. Residues count along the entry.
UniProt P37173, residues 23-567: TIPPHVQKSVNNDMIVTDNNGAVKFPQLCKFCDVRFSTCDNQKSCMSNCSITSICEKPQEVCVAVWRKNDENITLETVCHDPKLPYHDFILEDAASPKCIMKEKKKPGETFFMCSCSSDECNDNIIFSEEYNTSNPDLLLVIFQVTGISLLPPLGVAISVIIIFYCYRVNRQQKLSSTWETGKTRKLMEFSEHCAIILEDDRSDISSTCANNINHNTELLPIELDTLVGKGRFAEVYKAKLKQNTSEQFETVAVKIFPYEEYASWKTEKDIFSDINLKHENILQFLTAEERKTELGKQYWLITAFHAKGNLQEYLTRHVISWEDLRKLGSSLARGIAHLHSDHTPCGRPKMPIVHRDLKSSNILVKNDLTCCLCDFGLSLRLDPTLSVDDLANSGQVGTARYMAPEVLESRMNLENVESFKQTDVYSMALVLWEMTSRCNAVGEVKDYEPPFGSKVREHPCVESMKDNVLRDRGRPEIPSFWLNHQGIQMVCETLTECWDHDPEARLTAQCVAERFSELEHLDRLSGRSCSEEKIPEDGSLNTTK
UniProt Q15796: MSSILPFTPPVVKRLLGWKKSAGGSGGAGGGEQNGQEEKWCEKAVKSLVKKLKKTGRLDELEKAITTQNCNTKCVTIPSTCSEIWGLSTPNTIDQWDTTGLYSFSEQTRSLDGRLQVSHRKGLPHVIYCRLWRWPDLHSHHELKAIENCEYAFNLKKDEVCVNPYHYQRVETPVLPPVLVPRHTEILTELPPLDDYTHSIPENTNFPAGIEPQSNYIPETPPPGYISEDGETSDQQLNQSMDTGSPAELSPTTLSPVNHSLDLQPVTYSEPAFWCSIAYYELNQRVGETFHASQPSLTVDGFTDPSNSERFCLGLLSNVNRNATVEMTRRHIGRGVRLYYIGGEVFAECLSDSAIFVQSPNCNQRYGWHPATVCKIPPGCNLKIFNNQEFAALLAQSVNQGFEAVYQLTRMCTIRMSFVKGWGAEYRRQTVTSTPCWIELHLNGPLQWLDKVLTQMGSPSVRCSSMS

One assay has as its target T1, HA-MARCH2 (human) (UniProt Q9P0N8).
T1 sequence: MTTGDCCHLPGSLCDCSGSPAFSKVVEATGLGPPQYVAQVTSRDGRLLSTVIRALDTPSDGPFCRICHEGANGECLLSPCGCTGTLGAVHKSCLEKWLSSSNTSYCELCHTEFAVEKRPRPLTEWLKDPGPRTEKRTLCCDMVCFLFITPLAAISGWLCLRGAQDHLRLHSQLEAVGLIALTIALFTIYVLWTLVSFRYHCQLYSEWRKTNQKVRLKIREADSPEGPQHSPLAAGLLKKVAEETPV
Briefly: co-IP; tagged proteins co-expressed (HEK293T for Fig. 2B); lysis in 1% NP-40, 20 mM Tris-HCl pH 7.6, 150 mM NaCl, 2 mM EDTA; magnetic beads overnight at 4 °C, five washes; immunoblot. In general terms: A western blot detects proteins with antibodies after separation by electrophoresis.

The target in assay [1] is T2, endogenous ALK5 (human (endogenous in A549)) (UniProt P36897).
T2 sequence: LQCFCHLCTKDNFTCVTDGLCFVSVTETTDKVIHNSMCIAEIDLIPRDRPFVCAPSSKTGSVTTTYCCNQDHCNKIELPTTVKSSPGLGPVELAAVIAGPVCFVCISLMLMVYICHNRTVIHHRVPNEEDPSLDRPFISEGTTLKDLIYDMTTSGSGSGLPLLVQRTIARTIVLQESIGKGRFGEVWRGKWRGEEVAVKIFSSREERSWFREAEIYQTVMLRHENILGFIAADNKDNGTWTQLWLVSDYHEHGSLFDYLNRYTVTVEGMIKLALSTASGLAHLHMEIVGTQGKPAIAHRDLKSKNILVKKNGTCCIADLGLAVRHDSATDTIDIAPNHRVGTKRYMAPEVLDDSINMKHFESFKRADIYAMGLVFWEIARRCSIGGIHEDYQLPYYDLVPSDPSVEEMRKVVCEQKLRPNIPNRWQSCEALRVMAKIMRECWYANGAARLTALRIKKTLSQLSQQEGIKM
Briefly: proximity ligation; PLA of ALK5 with SMAD2/3 in mock- or MARCH2-depleted cells upon TGF-β treatment (Fig. S4C).

On to “FLAG-TGFBR2 (from UniProt P37173 23-567) (receptor)”, for which the binding entry with HA-MARCH2 (human) was “binds weakly”.
On to SMAD2 (from UniProt Q15796 1-467), for which the binding entry in assay [1] is reported as “binds”.

The record behind these values is paper PMC12603192.
